“And” between values parts separate entries of the source, which are not always exact repeats. Equal values may be shown once. The list shows a part of the results. Many values rest on one well or one pass, so single values are uncertain.
Experiments:
Assay in all cases: cell viability relative to untreated (fraction); higher = less growth inhibition
Settings in all cases: 5 µM; 3 days
[1] = test system: MEPP (mouse ovarian epithelium Trp53/Pten KO)
[2] = test system: PREPP (mouse prostate epithelium Trp53/Pten KO)
[3] = test system: MEPP (mouse ovarian epithelium Trp53/Pten KO); remark: listed apart in the source
[4] = test system: PREPP (mouse prostate epithelium Trp53/Pten KO); remark: listed apart in the source

Row | SMILES | cell viability [1] | cell viability [2] | cell viability [3] | cell viability [4]
1 | CCCCCCOC(=O)NC(=N)c1ccc(NCc2nc3cc(C(=O)N(CCC(=O)OCC)c4ccccn4)ccc3n2C)cc1 | 1.01 | 0.919 |  | 
2 | C=C1C[C@@]2(O)O[C@@]3(C[C@H]2C(C)C)[C@@H](C)CC[C@@H]13 | 0.844 | 0.874 | 1.1 | 1.07
3 | CCOC(=O)NCCCC(=O)NCCc1ccccc1 | 0.847 | 1.03 | 1.01 | 0.854
4 | Oc1ccc(/C=C/c2cc(O)cc(O)c2)cc1 | 1.11 | 0.909 | 0.812 | 0.852
5 | NC(=O)c1ncn([C@@H]2O[C@H](CO)[C@@H](O)[C@H]2O)c1O | 1.3 | 0.944 | 1.08 | 0.96
6 | CC(C=CC(=O)NO)=CC(C)C(=O)c1ccc(N(C)C)cc1 (stereo unspecified) | 0.665 | 0.507 | 0.452 | 0.736
7 | CC(=O)OCC1=C(C(=O)O)N2C(=O)[C@@H](NC(=O)Cc3cccs3)[C@H]2SC1 | 0.917 | 1.13 |  | 
8 | COC(=O)C1=CO[C@@H](O[C@@H]2O[C@H](CO)[C@@H](O)[C@H](O)[C@H]2O)[C@@H]2[C@@H](C)[C@@H](O)C[C@H]12 | 1.72 | 0.876 |  | 
9 | O=C(OCc1ccccc1)c1ccccc1 | 1.02 | 1 |  | 
10 | NC[C@H]1O[C@H](O[C@H]2[C@H](O)[C@@H](O[C@H]3O[C@H](CO)[C@@H](O)[C@H](N)[C@H]3O)[C@H](N)C[C@@H]2N)[C@H](N)C[C@@H]1O | 1.11 and 0.818 | 0.942 and 0.847 |  | 
11 | COC(=O)C1=CO[C@@H](O)[C@@H]2C(CO)=CC[C@H]12 | 0.982 | 0.774 |  | 
12 | CCCNC[C@]1(O)[C@H](C)O[C@@H](O[C@H]2[C@H](C)[C@@H](O[C@@H]3O[C@H](C)C[C@H](N(C)C)[C@H]3O)[C@](C)(O)C[C@@H](C)CN[C@H](C)[C@@H](O)[C@](C)(O)[C@@H](CC)OC(=O)[C@@H]2C)C[C@@]1(C)OC | 1.06 | 0.762 |  | 
13 | NC[C@H](O)c1ccc(O)c(O)c1 | 0.907 | 0.953 |  | 
14 | Nc1ccc(S(N)(=O)=O)cc1 | 0.803 | 0.97 |  | 
15 | CN(C)[C@@H]1C(O)=C(C(N)=O)C(=O)[C@@]2(O)C(O)=C3C(=O)c4c(O)cccc4[C@@](C)(O)[C@H]3[C@H](O)[C@@H]12 | 0.948 and 0.893 | 0.939 and 0.913 |  | 
16 | C/C=C/C=C/C(=O)O | 0.805 | 1.01 |  | 
17 | O=C(O)c1ccoc1 | 0.968 | 1.1 |  | 

Part of the list above, set out differently.
CCOC(=O)NCCCC(=O)NCCc1ccccc1
  cell viability [1]: 0.847
  cell viability [2]: 1.03
  cell viability [3]: 1.01
  cell viability [4]: 0.854
NC[C@H]1O[C@H](O[C@H]2[C@H](O)[C@@H](O[C@H]3O[C@H](CO)[C@@H](O)[C@H](N)[C@H]3O)[C@H](N)C[C@@H]2N)[C@H](N)C[C@@H]1O
  cell viability [1]: 1.11 and 0.818
  cell viability [2]: 0.942 and 0.847

Carrying on:

Row | SMILES | cell viability [1] | cell viability [2] | cell viability [3] | cell viability [4]
18 | C/C=C1\C(=O)C[C@H]2[C@@H]3CCC4=CC(=O)CC[C@]4(C)[C@H]3CC[C@]12C | 0.778 | 0.877 |  | 
19 | CCCCCCCCCCCCCCCCCCCCCC(=O)O | 1.17 | 1 |  | 
20 | Cc1ccccc1C(=O)O | 1.1 | 0.924 |  | 
21 | NCCCNCCCCNCCCN | 0.882 and 1.03 | 0.93 and 0.816 |  | 
22 | CCCOC(=O)c1ccc(O)cc1 | 1.49 | 0.944 |  | 
23 | CC(C)=C1C/C=C(\C)CC/C=C(\C)CC1=O | 1.09 | 0.824 |  | 
24 | Nc1ccc(O)c(C(=O)O)c1 | 0.918 | 0.962 |  | 
25 | C[C@H]1O[C@@H](O[C@H]2[C@@H](O)C[C@H](O[C@H]3[C@@H](O)C[C@H](O[C@H]4CC[C@@]5(C)[C@H](CC[C@@H]6[C@@H]5C[C@@H](O)[C@]5(C)[C@@H](C7=CC(=O)OC7)CC[C@]65O)C4)O[C@@H]3C)O[C@@H]2C)C[C@H](O)[C@@H]1O | 0.88 | 0.854 |  | 
26 | C[C@H](O)c1ccccc1 | 0.888 | 1.17 |  | 
27 | CC1(C)S[C@@H]2[C@H](NC(=O)[C@H](N)c3ccccc3)C(=O)N2[C@H]1C(=O)OCOC(=O)[C@@H]1N2C(=O)C[C@H]2S(=O)(=O)C1(C)C | 0.878 and 0.998 | 0.971 and 0.99 |  | 
28 | COc1cc2c(cc1O)C[C@H]1c3cc(O)c(OC)cc3CC[N@@+]1(C)C2 | 0.936 | 1.06 |  | 
29 | C=C(C)[C@H]1CC=C(C)C(=O)C1 | 1.02 | 1.12 |  | 
30 | CCCCCCCCCCCCCCCC(=O)NCCO | 0.821 | 0.906 |  | 
31 | CC[C@H](C)C[C@H](C)CCCCCCCCC(=O)N[C@H]1C[C@@H](O)[C@@H](O)NC(=O)[C@@H]2[C@@H](O)CCN2C(=O)[C@H]([C@H](O)CC(N)=O)NC(=O)[C@H]([C@H](O)[C@@H](O)c2ccc(O)cc2)NC(=O)[C@@H]2C[C@@H](O)CN2C(=O)[C@H]([C@@H](C)O)NC1=O | 0.798 | 0.957 |  | 
32 | O=c1c(-c2ccc(O)cc2)coc2c([C@@H]3O[C@H](CO)[C@@H](O)[C@H](O)[C@H]3O)c(O)ccc12 | 1.3 | 0.968 |  | 
33 | O=C(O)[C@H]1O[C@@H](Oc2cc3oc(-c4ccc(O)cc4)cc(=O)c3c(O)c2O)[C@H](O)[C@@H](O)[C@@H]1O | 0.873 | 0.836 |  | 
